Reference: patent US8080367B2, “Regulation of cell survival by HSP90 and IP6K2” (The Johns Hopkins University, priority 2006, dated 2011)

Biological target: T1, IP6K2-HSP90 binding
T1 construct: other: purified proteins; 250 nM HSP90 from HeLa preincubated with d
Test: In vitro HSP90-IP6K2 binding assay with purified proteins
Set-up: species or system human
Settings: 250 nM HSP90 from HeLa preincubated with drug 30 min 37° C., then myc-IP6K2 beads, western blot, read-out: concentration reducing IP6K2-HSP90 binding by 50%
Source text: FIG. 3A, 3B, 3C. […] FIG. 3E.

CN[C@@H]1C[C@H]2O[C@@](C)([C@@H]1OC)n1c3ccccc3c3c4c(c5c6ccccc6n2c5c31)C(=O)NC4 [staurosporine]
IC50: ~100 nM
